For the assay, the target named is T1, calretinin (human) (UniProt P22676).
T1 sequence: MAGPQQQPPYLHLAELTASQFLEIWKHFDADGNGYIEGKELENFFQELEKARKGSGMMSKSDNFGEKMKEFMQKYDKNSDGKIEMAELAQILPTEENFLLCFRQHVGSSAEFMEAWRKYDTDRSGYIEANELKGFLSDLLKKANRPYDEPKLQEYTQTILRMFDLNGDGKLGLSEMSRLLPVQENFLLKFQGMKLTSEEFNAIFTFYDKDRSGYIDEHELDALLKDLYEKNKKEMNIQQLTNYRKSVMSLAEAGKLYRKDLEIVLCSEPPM
Description: co-IP; cleared lysates of MM cells (MSTO-211H-CR, ZL55-CR) in 150 mM NaCl, 1% Triton X-100, 50 mM Tris-HCl pH 8.0; rabbit polyclonal anti-CR antiserum and protein A MicroBeads at 4 °C; washed with 150 mM NaCl, 1% NP-40, 0.5% sodium deoxycholate, 0.1% SDS, 50 mM Tris-HCl pH 8.0; Western blot for septin 7. In general terms: In western blotting, separated proteins are transferred to a membrane and probed.

No constants are given. Whether binding was seen depends on the method and setting. In cells and extracts the contact can be indirect. Some binding calls cover weakened binding; strength is not graded here.

B1: septin 7 (protein, UniProt Q16181 1-437)
chain: MSVSARSAAAEERSVNSSTMVAQQKNLEGYVGFANLPNQVYRKSVKRGFEFTLMVVGESGLGKSTLINSLFLTDLYSPEYPGPSHRIKKTVQVEQSKVLIKEGGVQLLLTIVDTPGFGDAVDNSNCWQPVIDYIDSKFEDYLNAESRVNRRQMPDNRVQCCLYFIAPSGHGLKPLDIEFMKRLHEKVNIIPLIAKADTLTPEECQQFKKQIMKEIQEHKIKIYEFPETDDEEENKLVKKIKDRLPLAVVGSNTIIEVNGKRVRGRQYPWGVAEVENGEHCDFTILRNMLIRTHMQDLKDVTNNVHYENYRSRKLAAVTYNGVDNNKNKGQLTKSPLAQMEEERREHVAKMKKMEMEMEQVFEMKVKEKVQKLKDSEAELQRRHEQMKKNLEAQHKELEEKRRQFEDEKANWEAQQRILEQQNSSRTLEKNKKKGKIF
With B1, the binding entry is given as “binds”.

(Values after publication PMC5922012.)
